Measurements published in the supplement of paper PMC10849652.
Some of the results follow.

The chains behind the UniProt entries cited, without tags or fusion partners. Where a name states a change or a piece, a line headed by the entry shows the natural chain unless it says otherwise.
UniProt Q969T9: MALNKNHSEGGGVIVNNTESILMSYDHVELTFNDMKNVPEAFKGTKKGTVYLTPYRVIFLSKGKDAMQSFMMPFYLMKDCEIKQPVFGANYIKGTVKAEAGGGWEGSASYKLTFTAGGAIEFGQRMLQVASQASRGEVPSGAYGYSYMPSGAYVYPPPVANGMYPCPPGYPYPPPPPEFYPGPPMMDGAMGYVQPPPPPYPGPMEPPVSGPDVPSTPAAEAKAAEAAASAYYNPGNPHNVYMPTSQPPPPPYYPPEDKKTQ
UniProt Q8TBZ3: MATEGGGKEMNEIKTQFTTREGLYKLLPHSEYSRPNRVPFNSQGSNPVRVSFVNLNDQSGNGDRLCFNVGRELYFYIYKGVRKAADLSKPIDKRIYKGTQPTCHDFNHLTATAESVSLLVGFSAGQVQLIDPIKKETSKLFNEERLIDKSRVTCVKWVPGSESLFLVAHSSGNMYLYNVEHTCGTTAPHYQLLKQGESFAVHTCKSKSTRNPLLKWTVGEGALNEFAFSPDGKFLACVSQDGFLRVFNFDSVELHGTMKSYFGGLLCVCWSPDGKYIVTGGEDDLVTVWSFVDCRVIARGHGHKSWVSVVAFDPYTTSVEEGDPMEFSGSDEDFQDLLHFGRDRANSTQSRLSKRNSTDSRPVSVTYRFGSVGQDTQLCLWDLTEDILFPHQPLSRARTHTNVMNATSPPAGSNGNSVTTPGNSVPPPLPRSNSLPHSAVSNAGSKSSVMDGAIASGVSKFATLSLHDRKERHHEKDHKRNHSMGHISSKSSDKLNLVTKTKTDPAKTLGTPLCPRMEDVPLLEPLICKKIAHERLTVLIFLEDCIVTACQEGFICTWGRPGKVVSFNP
UniProt Q709C8: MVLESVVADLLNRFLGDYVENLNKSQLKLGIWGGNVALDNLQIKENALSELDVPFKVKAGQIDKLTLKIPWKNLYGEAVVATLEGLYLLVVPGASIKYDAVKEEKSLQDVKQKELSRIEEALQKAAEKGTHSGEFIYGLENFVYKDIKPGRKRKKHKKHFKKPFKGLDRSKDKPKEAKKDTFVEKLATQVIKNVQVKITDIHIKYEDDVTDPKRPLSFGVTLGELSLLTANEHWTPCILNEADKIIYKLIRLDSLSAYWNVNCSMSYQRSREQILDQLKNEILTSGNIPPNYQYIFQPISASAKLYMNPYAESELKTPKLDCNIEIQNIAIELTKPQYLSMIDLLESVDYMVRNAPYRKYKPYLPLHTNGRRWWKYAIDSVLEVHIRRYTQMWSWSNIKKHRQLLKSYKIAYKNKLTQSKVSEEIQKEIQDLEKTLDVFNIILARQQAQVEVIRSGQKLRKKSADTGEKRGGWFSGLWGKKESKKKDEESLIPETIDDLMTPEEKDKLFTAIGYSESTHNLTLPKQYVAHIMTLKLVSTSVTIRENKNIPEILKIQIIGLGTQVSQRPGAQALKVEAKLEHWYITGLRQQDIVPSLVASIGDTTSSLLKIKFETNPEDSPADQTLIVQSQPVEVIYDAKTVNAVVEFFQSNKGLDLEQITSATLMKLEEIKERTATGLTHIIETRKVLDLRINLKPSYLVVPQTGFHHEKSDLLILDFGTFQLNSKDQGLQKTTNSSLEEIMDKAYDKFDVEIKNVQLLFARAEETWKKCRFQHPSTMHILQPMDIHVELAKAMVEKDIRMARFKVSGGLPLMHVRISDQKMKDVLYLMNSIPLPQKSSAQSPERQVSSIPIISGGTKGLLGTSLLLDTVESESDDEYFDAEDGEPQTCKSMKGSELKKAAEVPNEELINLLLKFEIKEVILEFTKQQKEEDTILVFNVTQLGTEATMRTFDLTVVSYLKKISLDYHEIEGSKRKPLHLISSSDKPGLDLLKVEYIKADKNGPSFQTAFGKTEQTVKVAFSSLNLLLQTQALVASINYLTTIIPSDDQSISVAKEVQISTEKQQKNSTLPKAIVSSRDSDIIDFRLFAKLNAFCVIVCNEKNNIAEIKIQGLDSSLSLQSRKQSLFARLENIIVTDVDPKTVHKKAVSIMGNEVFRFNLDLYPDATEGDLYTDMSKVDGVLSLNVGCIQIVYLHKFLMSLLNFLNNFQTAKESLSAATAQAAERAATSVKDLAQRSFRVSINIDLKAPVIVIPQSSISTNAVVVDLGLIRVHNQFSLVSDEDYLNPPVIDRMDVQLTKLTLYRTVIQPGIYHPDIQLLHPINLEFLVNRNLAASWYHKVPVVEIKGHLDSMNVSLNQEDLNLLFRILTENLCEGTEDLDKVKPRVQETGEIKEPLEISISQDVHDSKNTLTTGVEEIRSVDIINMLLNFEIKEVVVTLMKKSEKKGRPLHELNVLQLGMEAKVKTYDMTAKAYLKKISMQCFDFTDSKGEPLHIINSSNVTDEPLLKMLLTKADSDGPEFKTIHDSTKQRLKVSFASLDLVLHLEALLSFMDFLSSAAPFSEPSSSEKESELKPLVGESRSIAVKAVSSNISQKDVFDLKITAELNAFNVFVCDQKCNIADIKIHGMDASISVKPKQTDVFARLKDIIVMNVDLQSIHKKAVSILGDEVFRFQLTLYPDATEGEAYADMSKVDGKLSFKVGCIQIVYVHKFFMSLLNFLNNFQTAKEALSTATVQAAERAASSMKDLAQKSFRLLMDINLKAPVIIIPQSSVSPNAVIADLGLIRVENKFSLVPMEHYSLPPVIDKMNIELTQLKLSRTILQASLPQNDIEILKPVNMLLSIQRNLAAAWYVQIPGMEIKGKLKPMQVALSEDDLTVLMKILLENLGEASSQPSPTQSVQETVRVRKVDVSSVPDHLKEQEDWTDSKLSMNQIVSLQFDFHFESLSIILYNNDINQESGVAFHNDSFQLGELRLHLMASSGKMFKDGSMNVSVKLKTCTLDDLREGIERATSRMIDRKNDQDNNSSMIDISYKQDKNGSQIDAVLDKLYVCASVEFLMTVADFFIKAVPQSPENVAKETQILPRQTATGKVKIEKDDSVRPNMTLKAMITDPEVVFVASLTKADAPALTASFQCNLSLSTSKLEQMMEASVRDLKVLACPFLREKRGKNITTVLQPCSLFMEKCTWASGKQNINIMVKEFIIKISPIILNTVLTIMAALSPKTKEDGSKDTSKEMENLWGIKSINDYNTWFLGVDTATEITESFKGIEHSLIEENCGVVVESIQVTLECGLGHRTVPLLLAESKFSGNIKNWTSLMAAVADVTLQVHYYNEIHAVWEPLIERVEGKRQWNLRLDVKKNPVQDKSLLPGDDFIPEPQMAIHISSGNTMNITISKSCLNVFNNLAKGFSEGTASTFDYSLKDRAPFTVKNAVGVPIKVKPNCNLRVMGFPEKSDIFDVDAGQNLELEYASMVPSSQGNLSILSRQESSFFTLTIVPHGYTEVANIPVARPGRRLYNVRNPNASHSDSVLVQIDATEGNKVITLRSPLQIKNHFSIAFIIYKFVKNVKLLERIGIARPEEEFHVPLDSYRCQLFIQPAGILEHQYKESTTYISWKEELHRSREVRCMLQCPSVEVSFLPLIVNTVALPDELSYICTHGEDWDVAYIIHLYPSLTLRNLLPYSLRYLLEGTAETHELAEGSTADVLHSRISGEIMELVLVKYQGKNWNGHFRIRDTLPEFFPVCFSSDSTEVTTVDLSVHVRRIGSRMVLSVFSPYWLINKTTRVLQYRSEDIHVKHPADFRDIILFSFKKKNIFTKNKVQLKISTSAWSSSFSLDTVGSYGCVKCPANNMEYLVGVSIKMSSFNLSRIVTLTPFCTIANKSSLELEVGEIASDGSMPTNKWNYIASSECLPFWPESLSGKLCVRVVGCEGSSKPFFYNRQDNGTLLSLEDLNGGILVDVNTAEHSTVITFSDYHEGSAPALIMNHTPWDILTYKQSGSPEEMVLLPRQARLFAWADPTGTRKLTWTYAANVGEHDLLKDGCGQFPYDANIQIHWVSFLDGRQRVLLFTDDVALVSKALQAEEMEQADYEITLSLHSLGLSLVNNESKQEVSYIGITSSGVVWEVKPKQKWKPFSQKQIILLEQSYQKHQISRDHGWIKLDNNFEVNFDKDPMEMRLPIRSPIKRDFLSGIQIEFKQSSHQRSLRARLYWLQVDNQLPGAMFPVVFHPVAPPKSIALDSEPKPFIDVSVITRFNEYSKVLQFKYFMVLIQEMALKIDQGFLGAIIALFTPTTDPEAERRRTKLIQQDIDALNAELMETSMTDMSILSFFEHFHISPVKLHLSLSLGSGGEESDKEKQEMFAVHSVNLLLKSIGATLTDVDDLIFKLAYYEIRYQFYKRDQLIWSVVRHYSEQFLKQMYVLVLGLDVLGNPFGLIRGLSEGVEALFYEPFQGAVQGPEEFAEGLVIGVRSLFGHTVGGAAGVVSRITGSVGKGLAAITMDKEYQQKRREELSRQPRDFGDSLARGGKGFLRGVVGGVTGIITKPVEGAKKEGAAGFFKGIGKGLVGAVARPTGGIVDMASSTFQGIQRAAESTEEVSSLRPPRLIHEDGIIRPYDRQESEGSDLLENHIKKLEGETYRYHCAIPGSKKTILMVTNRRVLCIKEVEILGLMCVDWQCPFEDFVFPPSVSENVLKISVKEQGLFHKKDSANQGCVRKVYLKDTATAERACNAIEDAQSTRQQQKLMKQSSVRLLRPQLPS
UniProt Q96MX6, whole entry, looked up: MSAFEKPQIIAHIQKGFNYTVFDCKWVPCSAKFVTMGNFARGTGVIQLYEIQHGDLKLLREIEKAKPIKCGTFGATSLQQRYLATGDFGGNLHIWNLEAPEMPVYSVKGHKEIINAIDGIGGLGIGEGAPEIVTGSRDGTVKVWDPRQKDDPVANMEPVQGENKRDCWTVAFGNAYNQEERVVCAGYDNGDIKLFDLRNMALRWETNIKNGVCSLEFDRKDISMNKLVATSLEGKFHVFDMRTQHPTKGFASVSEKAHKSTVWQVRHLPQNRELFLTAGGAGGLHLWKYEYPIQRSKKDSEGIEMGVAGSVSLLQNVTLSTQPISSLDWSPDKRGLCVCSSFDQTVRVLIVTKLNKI
UniProt Q9Y4P8: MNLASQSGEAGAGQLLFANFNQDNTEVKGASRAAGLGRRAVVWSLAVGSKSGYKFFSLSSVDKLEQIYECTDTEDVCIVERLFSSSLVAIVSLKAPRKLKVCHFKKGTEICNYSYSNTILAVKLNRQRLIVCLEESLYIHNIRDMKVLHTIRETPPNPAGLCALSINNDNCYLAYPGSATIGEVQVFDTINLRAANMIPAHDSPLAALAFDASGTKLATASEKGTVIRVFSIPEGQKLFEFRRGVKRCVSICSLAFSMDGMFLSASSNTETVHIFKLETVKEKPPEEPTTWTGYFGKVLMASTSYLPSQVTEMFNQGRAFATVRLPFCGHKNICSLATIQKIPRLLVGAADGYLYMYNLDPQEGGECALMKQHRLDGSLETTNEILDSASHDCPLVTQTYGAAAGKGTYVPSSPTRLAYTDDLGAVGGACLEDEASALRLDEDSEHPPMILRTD
UniProt Q5MNZ9: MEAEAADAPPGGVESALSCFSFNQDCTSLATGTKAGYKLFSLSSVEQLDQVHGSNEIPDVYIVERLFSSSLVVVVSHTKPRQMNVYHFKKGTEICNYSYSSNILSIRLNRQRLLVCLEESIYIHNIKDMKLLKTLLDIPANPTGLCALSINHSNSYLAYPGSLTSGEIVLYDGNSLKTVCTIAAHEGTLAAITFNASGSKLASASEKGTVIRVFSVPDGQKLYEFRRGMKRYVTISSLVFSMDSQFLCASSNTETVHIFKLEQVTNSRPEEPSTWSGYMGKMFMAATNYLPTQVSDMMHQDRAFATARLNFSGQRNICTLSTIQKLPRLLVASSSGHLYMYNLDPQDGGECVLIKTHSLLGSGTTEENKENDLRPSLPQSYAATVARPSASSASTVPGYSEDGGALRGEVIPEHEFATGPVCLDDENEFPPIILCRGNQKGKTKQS
UniProt Q6RFH5: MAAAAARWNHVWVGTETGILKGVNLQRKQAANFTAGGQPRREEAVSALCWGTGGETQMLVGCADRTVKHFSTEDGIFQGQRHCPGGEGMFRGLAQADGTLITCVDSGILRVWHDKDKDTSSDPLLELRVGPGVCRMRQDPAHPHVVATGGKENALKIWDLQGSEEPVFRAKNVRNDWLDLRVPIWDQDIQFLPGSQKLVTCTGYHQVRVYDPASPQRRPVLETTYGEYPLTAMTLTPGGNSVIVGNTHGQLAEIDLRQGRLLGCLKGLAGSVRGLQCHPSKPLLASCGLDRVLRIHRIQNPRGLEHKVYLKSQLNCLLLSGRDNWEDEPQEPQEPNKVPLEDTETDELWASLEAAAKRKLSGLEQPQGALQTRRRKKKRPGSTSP

Tests used:
Experiment in all cases: log2 fold change, soluble protein after heating vs DMSO (PISA); higher = thermal stabilisation; K562 cells, 10 uM, 30 min; active = over 0.2 and 3.5 SD of the protein, either way, in both replicates (recomputed)
[1] = compound: CS(=O)(=O)c1ccc(-c2cnc(N)c(C(=O)Nc3ccccc3)n2)cc1
Summary of the method: (§1)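 K562 cells (2×10^6 cells/mL) were treated with 10 μM compound for 30 min, and aliquots were heated for 3 min over 48°C-58°C. Pooled aliquots were extracted in PBS with 0.5% NP-40 at 4°C, and the supernatant after 21,000xg for 90 min was measured by TMTpro 16plex LC-MS/MS with channel sums equalised. Reported thermal stability, relative to control samples and from duplicates, is a log2 fold change.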

crizotinib = compound: C[C@@H](Oc1cc(-c2cnn(C3CCNCC3)c2)cnc1N)c1c(Cl)ccc(F)c1Cl [crizotinib]
Summary of the method: as §1

[2] = compound: C[C@@H]1COCCN1C2=NC(=NC(=C2)C3(CC3)S(=O)(=O)C)C4=C5C=CNC5=CC=C4
Summary of the method: as §1

[3] = compound: C[C@H](C1=CC=C(C=C1)C(=O)NC2=C3C=CNC3=NC=C2)N
Summary of the method: as §1

duvelisib = compound: C[C@H](Nc1ncnc2nc[nH]c12)c1cc2cccc(Cl)c2c(=O)n1-c1ccccc1 [duvelisib]
Summary of the method: as §1

gandotinib = compound: Cc1cc(Nc2cc(CN3CCOCC3)c3nc(C)c(Cc4ccc(Cl)cc4F)n3n2)n[nH]1 [gandotinib]
Summary of the method: as §1

tozasertib = compound: Cc1cc(Nc2cc(N3CCN(C)CC3)nc(Sc3ccc(NC(=O)C4CC4)cc3)n2)n[nH]1 [tozasertib]
Summary of the method: as §1

[4] = compound: Cc1cc(SCc2sc(-c3ccc(C(F)(F)F)cc3)nc2C)ccc1OCC(=O)O
Summary of the method: as §1

doramapimod = compound: Cc1ccc(-n2nc(C(C)(C)C)cc2NC(=O)Nc2ccc(OCCN3CCOCC3)c3ccccc23)cc1 [doramapimod]
Summary of the method: as §1

ispinesib = compound: Cc1ccc(C(=O)N(CCCN)[C@@H](c2nc3cc(Cl)ccc3c(=O)n2Cc2ccccc2)C(C)C)cc1 [ispinesib]
Summary of the method: as §1

bafetinib = compound: Cc1ccc(NC(=O)c2ccc(CN3CC[C@H](N(C)C)C3)c(C(F)(F)F)c2)cc1Nc1nccc(-c2cncnc2)n1 [bafetinib]
Summary of the method: as §1

[5] = compound: Cc1cccc(CC(=O)N2CCc3c2ccc(-c2cn(C)c4ncnc(N)c24)c3F)n1
Summary of the method: as §1

nilotinib = compound: Cc1cn(-c2cc(NC(=O)c3ccc(C)c(Nc4nccc(-c5cccnc5)n4)c3)cc(C(F)(F)F)c2)cn1 [nilotinib]
Summary of the method: as §1

[6] = compound: Cc1nc(Nc2n[nH]c3c2CN(C(=O)N[C@H](CN(C)C)c2ccccc2)C3(C)C)c2sccc2n1
Summary of the method: as §1

dasatinib = compound: Cc1nc(Nc2ncc(C(=O)Nc3c(C)cccc3Cl)s2)cc(N2CCN(CCO)CC2)n1 [dasatinib]
Summary of the method: as §1

[7] = compound: Cc1ncc(-c2ccnc(Nc3ccc(S(C)(=O)=O)cc3)n2)n1C(C)C
Summary of the method: as §1

[8] = compound: Cn1cc(-c2ccc3c(c2)CCN3C(=O)Cc2cccc(C(F)(F)F)c2)c2c(N)ncnc21
Summary of the method: as §1

[9] = compound: Cn1cc(-c2ccc3nnc(C(F)(F)c4ccc5ncccc5c4)n3n2)cn1
Summary of the method: as §1

tipifarnib = compound: Cn1cncc1[C@@](N)(c1ccc(Cl)cc1)c1ccc2c(c1)c(-c1cccc(Cl)c1)cc(=O)n2C [tipifarnib]
Summary of the method: as §1

mubritinib = compound: FC(F)(F)c1ccc(/C=C/c2nc(COc3ccc(CCCCn4ccnn4)cc3)co2)cc1 [mubritinib]
Summary of the method: as §1

Measured: log2 fold change

WASL (UniProt O00401)
inactive: [1] 0.088 | crizotinib -0.054 | [2] 0.079 | [3] 0.036 | duvelisib 0.092 | gandotinib -0.177 | tozasertib -0.013 | [4] -0.067 | doramapimod -0.01 | ispinesib 0.034 | bafetinib 0.011 | [5] -0.057 | nilotinib 0.067 | [6] 0.134 | dasatinib 0.017 | [7] -0.016 | [8] 0.021 | [9] -0.052 | tipifarnib -0.085 | mubritinib 0.049

WBP2 (UniProt Q969T9)
inactive: [1] 0.033 | crizotinib 0.024 | [2] -0.007 | [3] -0.087 | duvelisib 0.029 | gandotinib 0.06 | tozasertib 0.004 | [4] 0.019 | doramapimod -0.028 | ispinesib 0.052 | bafetinib -0.035 | [5] 0.007 | nilotinib 0.016 | [6] -0.024 | dasatinib -0.011 | [7] 0.015 | [8] 0.041 | [9] 0.018 | tipifarnib -0.01 | mubritinib 0.04

VPS26C (UniProt O14972)
inactive: [1] 0.05 | crizotinib -0.157 | [2] -0.052 | [3] 0.028 | duvelisib 0.071 | gandotinib -0.139 | tozasertib 0.014 | [4] 0.005 | doramapimod -0.063 | ispinesib -0.065 | bafetinib -0.009 | [5] 0.017 | nilotinib 0.06 | [6] -0.205 | dasatinib -0.049 | [7] -0.091 | [8] 0.005 | [9] -0.073 | tipifarnib 0.042 | mubritinib -0.005

WDTC1 (UniProt Q8N5D0)
inactive: [1] -0.055 | crizotinib 0.137 | [2] 0.009 | [3] 0.129 | duvelisib -0.035 | gandotinib 0.025 | tozasertib 0.021 | [4] -0.069 | doramapimod -0.131 | ispinesib 0.008 | bafetinib -0.079 | [5] 0 | nilotinib -0.086 | [6] 0.186 | dasatinib -0.139 | [7] -0.255 | [8] 0.017 | [9] 0.02 | tipifarnib -0.131 | mubritinib 0.158

WDR20 isoform 7 (UniProt Q8TBZ3)
inactive: [1] 0.058 | crizotinib 0.063 | [2] -0.089 | [3] 0.001 | duvelisib 0.057 | gandotinib 0.053 | tozasertib -0.06 | [4] 0 | doramapimod 0.027 | ispinesib -0.022 | bafetinib -0.063 | [5] -0.108 | nilotinib -0.085 | [6] -0.034 | dasatinib 0.023 | [7] 0.045 | [8] -0.037 | [9] -0.015 | tipifarnib 0.004 | mubritinib -0.019

VPS13C (UniProt Q709C8)
inactive: [1] 0.034 | crizotinib -0.127 | [2] 0.046 | [3] 0.013 | duvelisib 0.056 | gandotinib -0.017 | tozasertib -0.006 | [4] 0.011 | doramapimod 0 | ispinesib -0.099 | bafetinib -0.115 | [5] 0.041 | nilotinib -0.024 | [6] 0.003 | dasatinib -0.055 | [7] 0.045 | [8] 0.013 | [9] -0.002 | tipifarnib -0.024 | mubritinib 0.035

VPS4A (UniProt Q9UN37)
inactive: [1] 0.048 | crizotinib -0.174 | [2] 0.079 | [3] -0.022 | duvelisib 0.023 | gandotinib -0.058 | tozasertib -0.022 | [4] 0.023 | doramapimod -0.023 | ispinesib -0.059 | bafetinib -0.028 | [5] 0.073 | nilotinib -0.089 | [6] 0.001 | dasatinib -0.119 | [7] 0.017 | [8] 0.044 | [9] -0.004 | tipifarnib -0.063 | mubritinib -0.078

WDR92 (UniProt Q96MX6)
inactive: [1] 0.055 | crizotinib -0.071 | [2] -0.046 | [3] -0.089 | duvelisib -0.013 | gandotinib 0.053 | tozasertib 0.024 | [4] 0.132 | doramapimod 0 | ispinesib 0.001 | bafetinib 0.057 | [5] 0.051 | nilotinib -0.011 | [6] 0.03 | dasatinib -0.146 | [7] 0.101 | [8] 0 | [9] -0.088 | tipifarnib -0.074 | mubritinib 0.041

WIPI2 (UniProt Q9Y4P8)
inactive: [1] 0.013 | crizotinib -0.084 | [2] 0.221 | [3] -0.013 | duvelisib -0.081 | gandotinib -0.007 | tozasertib -0.067 | [4] 0.01 | doramapimod 0.035 | ispinesib -0.06 | bafetinib -0.065 | [5] -0.01 | nilotinib -0.015 | [6] -0.018 | dasatinib -0.068 | [7] -0.134 | [8] 0.08 | [9] -0.03 | tipifarnib -0.034 | mubritinib -0.025

WIPI1 (UniProt Q5MNZ9)
inactive: [1] -0.008 | crizotinib 0.099 | [2] -0.076 | [3] -0.137 | duvelisib 0.025 | gandotinib -0.004 | tozasertib 0.028 | [4] -0.012 | doramapimod 0.002 | ispinesib -0.059 | bafetinib -0.164 | [5] 0.058 | nilotinib 0.026 | [6] -0.278 | dasatinib 0.012 | [7] 0.078 | [8] -0.019 | [9] 0.052 | tipifarnib 0.015 | mubritinib 0.073

WIZ (UniProt O95785)
inactive: [1] 0.032 | crizotinib -0.147 | [2] 0.03 | [3] 0.003 | duvelisib 0 | gandotinib -0.009 | tozasertib -0.064 | [4] 0 | doramapimod 0.034 | ispinesib -0.118 | bafetinib -0.036 | [5] 0.013 | nilotinib -0.011 | [6] -0.017 | dasatinib -0.015 | [7] -0.109 | [8] -0.01 | [9] -0.052 | tipifarnib 0.009 | mubritinib 0.072

VIM (UniProt P08670)
inactive: [1] 0.072 | crizotinib 0.283 | [2] -0.326 | [3] 0.188 | duvelisib -0.234 | gandotinib 0.179 | tozasertib 0.405 | [4] 0.105 | doramapimod 0.176 | ispinesib -0.129 | bafetinib -0.068 | [5] -0.004 | nilotinib 0.091 | [6] -0.117 | dasatinib 0.389 | [7] -0.047 | [8] -0.278 | [9] -0.143 | tipifarnib 0.251 | mubritinib -0.283

WRAP73 (UniProt Q9P2S5)
inactive: [1] -0.071 | crizotinib -0.045 | [2] -0.038 | [3] -0.016 | duvelisib 0.081 | gandotinib -0.011 | tozasertib -0.065 | [4] -0.015 | doramapimod -0.014 | ispinesib 0.086 | bafetinib -0.042 | [5] -0.04 | nilotinib -0.01 | [6] 0.041 | dasatinib 0.053 | [7] 0.007 | [8] 0.037 | [9] 0.008 | tipifarnib 0.018 | mubritinib -0.031

WDR44 (UniProt Q5JSH3)
inactive: [1] -0.005 | crizotinib 0.027 | [2] 0.024 | [3] -0.073 | duvelisib 0.029 | gandotinib -0.009 | tozasertib -0.027 | [4] -0.014 | doramapimod -0.015 | ispinesib 0.017 | bafetinib -0.023 | [5] -0.005 | nilotinib 0.002 | [6] -0.034 | dasatinib 0.039 | [7] -0.003 | [8] 0.025 | [9] 0.046 | tipifarnib 0.007 | mubritinib 0.053

Reprinted at random: two records from the list
WIZ (UniProt O95785)
inactive: [1] 0.032 | crizotinib -0.147 | [2] 0.03 | [3] 0.003 | duvelisib 0 | gandotinib -0.009 | tozasertib -0.064 | [4] 0 | doramapimod 0.034 | ispinesib -0.118 | bafetinib -0.036 | [5] 0.013 | nilotinib -0.011 | [6] -0.017 | dasatinib -0.015 | [7] -0.109 | [8] -0.01 | [9] -0.052 | tipifarnib 0.009 | mubritinib 0.072

WDR44 (UniProt Q5JSH3)
inactive: [1] -0.005 | crizotinib 0.027 | [2] 0.024 | [3] -0.073 | duvelisib 0.029 | gandotinib -0.009 | tozasertib -0.027 | [4] -0.014 | doramapimod -0.015 | ispinesib 0.017 | bafetinib -0.023 | [5] -0.005 | nilotinib 0.002 | [6] -0.034 | dasatinib 0.039 | [7] -0.003 | [8] 0.025 | [9] 0.046 | tipifarnib 0.007 | mubritinib 0.053

Next records follow.

WDR74 (UniProt Q6RFH5)
inactive: [1] -0.037 | crizotinib -0.06 | [2] -0.296 | [3] 0.238 | duvelisib -0.028 | gandotinib 0.201 | tozasertib -0.027 | [4] -0.032 | doramapimod 0.145 | ispinesib -0.187 | bafetinib 0.076 | [5] -0.01 | nilotinib -0.027 | [6] 0.012 | dasatinib 0 | [7] 0.038 | [8] -0.085 | [9] -0.024 | tipifarnib 0.055 | mubritinib -0.035

WDR48 (UniProt Q8TAF3)
inactive: [1] -0.017 | crizotinib 0.062 | [2] 0.076 | [3] 0.008 | duvelisib 0.028 | gandotinib -0.005 | tozasertib -0.019 | [4] -0.038 | doramapimod -0.032 | ispinesib 0.012 | bafetinib -0.033 | [5] -0.049 | nilotinib 0.01 | [6] -0.003 | dasatinib 0.041 | [7] 0.005 | [8] 0.017 | [9] 0.02 | tipifarnib 0.031 | mubritinib 0.039
